These are yes or no findings as the source states them, for the method shown. In cells and extracts the contact can be indirect. Some results given as binding are weak or reduced against the parent protein; the word gives no strength. Tags and fused reporters may be left off the sequences shown. Values belong to the molecule of their own block, whether it stands above or below them.
Molecular target: T1, FLAG-V5-TAF7L (TATA-binding protein associated factor 7L, doubly tagged) (UniProt Q9D3R9)
T1 sequence: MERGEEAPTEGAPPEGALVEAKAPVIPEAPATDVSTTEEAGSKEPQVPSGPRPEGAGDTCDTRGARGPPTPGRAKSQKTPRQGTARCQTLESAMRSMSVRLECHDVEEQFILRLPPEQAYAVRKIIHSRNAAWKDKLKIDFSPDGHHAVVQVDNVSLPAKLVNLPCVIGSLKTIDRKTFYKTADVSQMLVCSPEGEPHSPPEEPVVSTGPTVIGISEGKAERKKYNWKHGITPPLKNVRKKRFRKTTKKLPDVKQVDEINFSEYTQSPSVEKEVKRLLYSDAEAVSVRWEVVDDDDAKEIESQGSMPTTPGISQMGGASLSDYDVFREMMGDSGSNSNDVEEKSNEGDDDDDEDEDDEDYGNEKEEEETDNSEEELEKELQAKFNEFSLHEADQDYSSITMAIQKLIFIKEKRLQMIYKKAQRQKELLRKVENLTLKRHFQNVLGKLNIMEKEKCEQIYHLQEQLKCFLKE
Test: co-IP; same sequential FLAG then V5 immunoprecipitation from post-differentiated FLAG-V5-GFP/TAF7L C3H10T1/2 adipocytes; 0.3 M NaCl, 0.2% NP-40, 4°C; western blotting with V5, PPARγ, TAF4 and TBP antibodies

The chains behind the UniProt entries cited, without tags or fusion partners.
UniProt P37238: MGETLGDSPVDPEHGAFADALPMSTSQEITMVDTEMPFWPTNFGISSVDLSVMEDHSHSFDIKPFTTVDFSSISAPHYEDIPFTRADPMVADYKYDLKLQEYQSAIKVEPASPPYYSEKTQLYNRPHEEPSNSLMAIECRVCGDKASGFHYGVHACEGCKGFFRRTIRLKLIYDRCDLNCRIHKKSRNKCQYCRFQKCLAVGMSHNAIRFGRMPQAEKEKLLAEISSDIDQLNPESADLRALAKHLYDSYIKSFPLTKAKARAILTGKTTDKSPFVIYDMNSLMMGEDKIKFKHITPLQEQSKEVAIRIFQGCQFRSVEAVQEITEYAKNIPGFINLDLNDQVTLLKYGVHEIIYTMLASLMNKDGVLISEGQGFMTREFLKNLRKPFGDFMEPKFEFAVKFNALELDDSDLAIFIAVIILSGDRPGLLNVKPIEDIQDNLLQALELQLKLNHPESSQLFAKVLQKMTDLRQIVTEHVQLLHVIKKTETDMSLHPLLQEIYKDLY

- binding: binds
Molecule: PPARγ (from UniProt P37238 1-505)

- binding: binds
B1: TAF4 (protein, UniProt E9QAP7 1-1042)
chain: MAAGSDLLDEVFFNSEVDEKVVSDLVGSLESQLAASAAHHHHLAPRTPELRAAAAGALGNHVVSGSPAGAAGAGPAASAEGAPAAAPEPPPAGRARPAGGGPRRPGSSSPRRLLVPAGPAPAPAKLRPLPEASAGPCPAAAAAAAATAAAVAGPDPAAAAPPAGPGASKPGPPGPPGPGAAQTLNGSAAPPTAPHAAPAVSPVNNGPAPPPAAGSVIQAAPAPAAPSPPAAPAPAAPPPPAPPAPVAPARPPGHPAAPAPPVSPAAAAAAAAAAAAAQNGAAPAPAAASGGAAGLGQPGAGAQGAKAEAPKPGPGPGPGPAAAAAAAGVAGGGAAGSVLLGPAMPGALPGPAPGTPAGLAKGAAAATPSLPRTPAATTGAIRATLTPTVLAPRLPQPPQNPTNIQNFQLPPGMVLVRSENGQLLMIPQQALAQMQAHAQAQPQSTMAPRPATPTGAPPVQISTVQAPGTPIIARQVTPTTIIKQVSQAQTTVQPTTTLQRSPGVQPQLVLGGSAQPASLGTATAVQTGTPQRTVPGASTTSTAATETMENVKKCKSFLSTLIKLASSGKQSTETAANVKDLVQNLLDGKIEAEDFTSRLYRELNSSPQPYLVPFLKRSLPALRQLTPDSAAFIQQSQQQQPPASQATTALTAVVLSSSVQRTAGKTAASVTSALQPPVISLTQPTQVGVGKQAPPTPLVIQQPPKPGALIRPPQVTLTQTPMVALRQPHNRIMLTTPQQIQLNQLQPVPVVKPTVLPGTKALSTVSAQAAAAQKNKLKEPGGGSFRDDDDINDVASMAGVNLSEESARILATNSELVGTLTRSCKDDTFLLPAPLQRRILEIGKKHGITELHPDVVSYVSHATQQRLQNLVEKISETAQQKNFSYKDDDRYEQASDVRAQLKFFEQLDQIEKQRKDEQEREILMRAAKSRSRQEDPEQLRLKQKAKEMQQQELAQMRQRDANLTALAAIGPRKKRKVDCTGPGSGAEGSGPGAAVPGGSGVGTPRQFTRQRITRVNLRDLIFCLENERETSHSLLLYKAFLK

— PMC4066819
